Assay: general procedure: peptide synthesis; HATU/NMM
Details: late stage modification step, trifluoroacetate

| Substance | step yield |
| --- | --- |
| N^4.10-(2-Amino-2-oxoethyl)-N^2.1-(tert-butoxycarbonyl)-D-leucyl-L-leucyl-[(3R)-3-hydroxy-L-phenylalanyl]-[(3R)-3-hydroxy-L-leucyl]-L-leucyl-D-arginyl-L-isoleucyl-L-allothreonylglycyl-[(3S)-3-hydroxy-L-asparaginyl]-L-serine C^1.11—O^3.3-lactone Trifluoroacetate | 60% of theory |
| N^4.10-[2-(2-{[Bis(dimethylamino)methylene]amino}ethoxy)ethyl]-D-leucyl-L-leucyl-[(3R)-3-hydroxy-L-phenylalanyl]-[(3R)-3-hydroxy-L-leucyl]-L-leucyl-D-arginyl-L-isoleucyl-L-allothreonylglycyl-[(3S)-3-hydroxy-L-asparaginyl]-L-serine C^1.11—O^3.3-lactone Tristrifluoroacetate | 67% of theory |
| N^2.1-(tert-Butoxycarbonyl)-N^4.10-[2-(benzyloxy)-2-oxoethyl]-D-leucyl-L-leucyl-[(3R)-3-hydroxy-L-phenylalanyl]-[(3R)-3-hydroxy-L-leucyl]-L-leucyl-D-arginyl-L-isoleucyl-L-allothreonylglycyl-[(3S)-3-hydroxy-L-β-asparaginyl]-L-serine C^1.11—O^3.3-lactone Trifluoroacetate | 98% of theory |
| N^2.1-(tert-Butoxycarbonyl)-N^4.10-(2-{[benzyloxycarbonyl]amino}ethyl)-D-leucyl-L-leucyl-[(3R)-3-hydroxy-L-phenylalanyl]-[(3R)-3-hydroxy-L-leucyl]-L-leucyl-D-arginyl-L-iso-leucyl-L-allothreonylglycyl-[(3S)-3-hydroxy-L-asparaginyl]-L-serine C^1.11-O^3.3-lactone Trifluoroacetate | 90% of theory |
| N^4.10-(2-Hydroxyethyl)-D-leucyl-L-leucyl-[(3R)-3-hydroxy-L-phenylalanyl]-[(3R)-3-hydroxy-L-leucyl]-L-leucyl-D-arginyl-L-isoleucyl-L-allothreonylglycyl-[(3S)-3-hydroxy-L-asparaginyl]-L-serine C^1.11—O^3.3-lactone Bistrifluoroacetate | 66% of theory |
| N^4.10-Methyl-D-leucyl-L-leucyl-[(3R)-3-hydroxy-L-phenylalanyl]-[(3R)-3-hydroxy-L-leucyl]-L-leucyl-D-arginyl-L-isoleucyl-L-allothreonylglycyl-[(3S)-3-hydroxy-L-asparaginyl]-L-serine C^1.11—O^3.3-lactone Bistrifluoroacetate | 69% of theory |
| N^4.10-(3-Morpholin-4-yl-propyl)-D-leucyl-L-leucyl-[(3R)-3-hydroxy-L-phenylalanyl]-[(3R)-3-hydroxy-L-leucyl]-L-leucyl-D-arginyl-L-isoleucyl-L-allothreonylglycyl-[(3S)-3-hydroxy-L-asparaginyl]-L-serine C^1.11—O^3.3-lactone Tristrifluoroacetate | 85% of theory |
| N^4.10-(2-Aminoethyl)-N^2.1-(tert-butoxycarbonyl)-D-leucyl-L-leucyl-[(3R)-3-hydroxy-L-phenylalanyl]-[(3R)-3-hydroxy-L-leucyl]-L-leucyl-D-arginyl-L-isoleucyl-L-allothreonyl-glycyl-[(3S)-3-hydroxy-L-asparaginyl]-L-serine C^1.11—O^3.3-lactone Bistrifluoroacetate | 78.9% of theory |
| N^2.1-(tert-Butoxycarbonyl)-D-leucyl-L-leucyl-[(3R)-3-hydroxy-L-phenylalanyl]-[(3R)-3-hydroxy-L-leucyl]-L-leucyl-D-arginyl-L-isoleucyl-L-allothreonylglycyl-[(3S)-3-hydroxy-L-aspartyl]-L-serine C^1.11—O^3.3-lactone Trifluoroacetate | 75% of theory |
| N^2.1-(tert-Butoxycarbonyl)-N^4.10-[2-(2-{[bis(dimethylamino)methylene]amino}ethoxy)ethyl]-D-leucyl-L-leucyl-[(3R)-3-hydroxy-L-phenylalanyl]-[(3R)-3-hydroxy-L-leucyl]-L-leucyl-D-arginyl-L-isoleucyl-L-allothreonylglycyl-[(3S)-3-hydroxy-L-asparaginyl]-L-serine C^1.11—O^3.3-lactone Bistrifluoroacetate | 22% of theory |
| N^4.10-(Carboxymethyl)-D-leucyl-L-leucyl-[(3R)-3-hydroxy-L-phenylalanyl]-[(3R)-3-hydroxy-L-leucyl]-L-leucyl-D-arginyl-L-isoleucyl-L-allothreonylglycyl-[(3S)-3-hydroxy-L-fi-asparaginyl]-L-serine C^1.11—O^3.3-lactone Bistrifluoroacetate | 45% of theory |
| N^4.10-(3-Morpholin-4-ylpropyl)-D-leucyl-L-leucyl-[(3R)-3-hydroxy-L-phenylalanyl]-[(3R)-3-hydroxy-L-leucyl]-L-leucyl-D-arginyl-L-isoleucyl-L-allothreonylglycyl-[(3S)-3-hydroxy-L-asparaginyl]-L-serine C^1.11—O^3.3-lactone Tristrifluoroacetate | 81% of theory |
| N^4.10-(Pyridin-3-yl-methyl)-D-leucyl-L-leucyl-[(3R)-3-hydroxy-L-phenylalanyl]-[(3R)-3-hydroxy-L-leucyl]-L-leucyl-D-arginyl-L-isoleucyl-L-allothreonylglycyl-[(3S)-3-hydroxy-L-asparaginyl]-L-serine C^1.11—O^3.3-lactone Tristrifluoroacetate | 89% of theory |
| N^4.10-Benzyl-D-leucyl-L-leucyl-[(3R)-3-hydroxy-L-phenylalanyl]-[(3R)-3-hydroxy-L-leucyl]-L-leucyl-D-arginyl-L-isoleucyl-L-allothreonylglycyl-[(3S)-3-hydroxy-L-asparaginyl]-L-serine C^1.11—O^3.3-lactone Bistrifluoroacetate | 80% of theory |
| N^4.10-(2-(Benzyloxy)-2-oxoethyl)-D-leucyl-L-leucyl-[(3R)-3-hydroxy-L-phenylalanyl]-[(3R)-3-hydroxy-L-leucyl]-L-leucyl-D-arginyl-L-isoleucyl-L-allothreonylglycyl-[(3S)-3-hydroxy-L-β-asparaginyl]-L-serine C^1.11—O^3.3-lactone Bistrifluoroacetate | 84% of theory |
| N^4.10-(2-Amino-2-oxoethyl)-D-leucyl-L-leucyl-[(3R)-3-hydroxy-L-phenylalanyl]-[(3R)-3-hydroxy-L-leucyl]-L-leucyl-D-arginyl-L-isoleucyl-L-allothreonylglycyl-[(3S)-3-hydroxy-L-asparaginyl]-L-serine C^1.11—O^3.3-lactone Bistrifluoroacetate | 65% of theory |
| N^4.10-(2-Aminoethyl)-D-leucyl-L-leucyl-[(3R)-3-hydroxy-L-phenylalanyl]-[(3R)-3-hydroxy-L-leucyl]-L-leucyl-D-arginyl-L-isoleucyl-L-allothreonylglycyl-[(3S)-3-hydroxy-L-asparaginyl]-L-serine C^1.11—O^3.3-lactone Tristrifluoroacetate | 67% of theory |
| N^4.10,N^4.10-Dimethyl-D-leucyl-L-leucyl-[(3R)-3-hydroxy-L-phenylalanyl]-[(3R)-3-hydroxy-L-leucyl]-L-leucyl-D-arginyl-L-isoleucyl-L-allothreonylglycyl-[(3S)-3-hydroxy-L-asparaginyl]-L-serine C^1.11—O^3.3-lactone Bistrifluoroacetate | 51% of theory |
